Results from US9505725B2, “Crystalline and mesomorphous forms of an AKT inhibiting pyrimidinyl-cyclopentane compound, compositions and methods thereof” (priority 2012, dated 2016).
Some results were stated once for a whole list of compounds, not compound by compound.

Assay: Maximum amount that could be dissolved in Capryol 90
Type: physicochemical
Conditions: model compounds of high or poor aqueous solubility

Row | Compound | maximum concentration that could be dissolved in Capryol 90 [% w/w]
1 | COC1=CC(=O)C[C@@H](C)[C@]12Oc1c(Cl)c(OC)cc(OC)c1C2=O [griseofulvin] | ≤ 10
2 | COc1ccc2c(c1)c(CC(=O)O)c(C)n2C(=O)c1ccc(Cl)cc1 [indomethacin] | ≤ 10
3 | CC(=O)Oc1ccccc1C(=O)O [acetyl salicylic acid] | ≤ 10
